No constants are given. Whether binding was seen depends on the method and setting. In cells and extracts the contact can be indirect. A yes stands for co-enrichment or nearness to the bait. Other partners may have been found.

Amino acid sequences for entries named in this document (tags omitted). Residues count along the entry.
UniProt Q5IJ48, residues 29-1285: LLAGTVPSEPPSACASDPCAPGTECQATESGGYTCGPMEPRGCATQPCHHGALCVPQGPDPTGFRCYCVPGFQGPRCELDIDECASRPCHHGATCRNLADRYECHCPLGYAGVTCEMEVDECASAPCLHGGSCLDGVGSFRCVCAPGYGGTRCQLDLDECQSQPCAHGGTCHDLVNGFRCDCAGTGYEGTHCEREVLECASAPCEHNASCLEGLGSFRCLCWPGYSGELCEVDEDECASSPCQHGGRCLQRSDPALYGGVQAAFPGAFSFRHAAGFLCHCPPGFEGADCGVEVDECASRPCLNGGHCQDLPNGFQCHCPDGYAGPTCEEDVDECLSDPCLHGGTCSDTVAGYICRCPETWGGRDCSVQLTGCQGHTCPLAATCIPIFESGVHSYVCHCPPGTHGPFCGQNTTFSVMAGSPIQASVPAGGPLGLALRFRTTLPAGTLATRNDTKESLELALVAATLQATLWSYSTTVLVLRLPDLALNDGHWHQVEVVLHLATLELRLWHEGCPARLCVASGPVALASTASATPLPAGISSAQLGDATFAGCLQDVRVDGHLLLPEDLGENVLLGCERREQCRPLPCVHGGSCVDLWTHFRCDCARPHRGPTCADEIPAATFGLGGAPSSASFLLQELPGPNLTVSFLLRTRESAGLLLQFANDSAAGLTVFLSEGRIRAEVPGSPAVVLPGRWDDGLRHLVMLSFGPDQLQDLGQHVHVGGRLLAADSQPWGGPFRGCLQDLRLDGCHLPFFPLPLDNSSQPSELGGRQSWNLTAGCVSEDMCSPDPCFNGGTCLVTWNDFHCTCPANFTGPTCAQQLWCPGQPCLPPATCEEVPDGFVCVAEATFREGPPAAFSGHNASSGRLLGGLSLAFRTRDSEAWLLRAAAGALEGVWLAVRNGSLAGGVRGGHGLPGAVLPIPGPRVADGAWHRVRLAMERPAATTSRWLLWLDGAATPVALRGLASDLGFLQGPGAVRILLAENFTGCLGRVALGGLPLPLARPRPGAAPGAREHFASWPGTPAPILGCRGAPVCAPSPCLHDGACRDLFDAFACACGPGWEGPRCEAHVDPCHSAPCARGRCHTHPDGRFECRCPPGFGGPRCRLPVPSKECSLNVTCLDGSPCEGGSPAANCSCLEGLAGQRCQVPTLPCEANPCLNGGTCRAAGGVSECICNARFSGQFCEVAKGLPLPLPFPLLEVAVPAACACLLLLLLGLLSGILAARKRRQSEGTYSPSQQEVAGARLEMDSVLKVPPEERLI
UniProt Q04721, residues 26-2471: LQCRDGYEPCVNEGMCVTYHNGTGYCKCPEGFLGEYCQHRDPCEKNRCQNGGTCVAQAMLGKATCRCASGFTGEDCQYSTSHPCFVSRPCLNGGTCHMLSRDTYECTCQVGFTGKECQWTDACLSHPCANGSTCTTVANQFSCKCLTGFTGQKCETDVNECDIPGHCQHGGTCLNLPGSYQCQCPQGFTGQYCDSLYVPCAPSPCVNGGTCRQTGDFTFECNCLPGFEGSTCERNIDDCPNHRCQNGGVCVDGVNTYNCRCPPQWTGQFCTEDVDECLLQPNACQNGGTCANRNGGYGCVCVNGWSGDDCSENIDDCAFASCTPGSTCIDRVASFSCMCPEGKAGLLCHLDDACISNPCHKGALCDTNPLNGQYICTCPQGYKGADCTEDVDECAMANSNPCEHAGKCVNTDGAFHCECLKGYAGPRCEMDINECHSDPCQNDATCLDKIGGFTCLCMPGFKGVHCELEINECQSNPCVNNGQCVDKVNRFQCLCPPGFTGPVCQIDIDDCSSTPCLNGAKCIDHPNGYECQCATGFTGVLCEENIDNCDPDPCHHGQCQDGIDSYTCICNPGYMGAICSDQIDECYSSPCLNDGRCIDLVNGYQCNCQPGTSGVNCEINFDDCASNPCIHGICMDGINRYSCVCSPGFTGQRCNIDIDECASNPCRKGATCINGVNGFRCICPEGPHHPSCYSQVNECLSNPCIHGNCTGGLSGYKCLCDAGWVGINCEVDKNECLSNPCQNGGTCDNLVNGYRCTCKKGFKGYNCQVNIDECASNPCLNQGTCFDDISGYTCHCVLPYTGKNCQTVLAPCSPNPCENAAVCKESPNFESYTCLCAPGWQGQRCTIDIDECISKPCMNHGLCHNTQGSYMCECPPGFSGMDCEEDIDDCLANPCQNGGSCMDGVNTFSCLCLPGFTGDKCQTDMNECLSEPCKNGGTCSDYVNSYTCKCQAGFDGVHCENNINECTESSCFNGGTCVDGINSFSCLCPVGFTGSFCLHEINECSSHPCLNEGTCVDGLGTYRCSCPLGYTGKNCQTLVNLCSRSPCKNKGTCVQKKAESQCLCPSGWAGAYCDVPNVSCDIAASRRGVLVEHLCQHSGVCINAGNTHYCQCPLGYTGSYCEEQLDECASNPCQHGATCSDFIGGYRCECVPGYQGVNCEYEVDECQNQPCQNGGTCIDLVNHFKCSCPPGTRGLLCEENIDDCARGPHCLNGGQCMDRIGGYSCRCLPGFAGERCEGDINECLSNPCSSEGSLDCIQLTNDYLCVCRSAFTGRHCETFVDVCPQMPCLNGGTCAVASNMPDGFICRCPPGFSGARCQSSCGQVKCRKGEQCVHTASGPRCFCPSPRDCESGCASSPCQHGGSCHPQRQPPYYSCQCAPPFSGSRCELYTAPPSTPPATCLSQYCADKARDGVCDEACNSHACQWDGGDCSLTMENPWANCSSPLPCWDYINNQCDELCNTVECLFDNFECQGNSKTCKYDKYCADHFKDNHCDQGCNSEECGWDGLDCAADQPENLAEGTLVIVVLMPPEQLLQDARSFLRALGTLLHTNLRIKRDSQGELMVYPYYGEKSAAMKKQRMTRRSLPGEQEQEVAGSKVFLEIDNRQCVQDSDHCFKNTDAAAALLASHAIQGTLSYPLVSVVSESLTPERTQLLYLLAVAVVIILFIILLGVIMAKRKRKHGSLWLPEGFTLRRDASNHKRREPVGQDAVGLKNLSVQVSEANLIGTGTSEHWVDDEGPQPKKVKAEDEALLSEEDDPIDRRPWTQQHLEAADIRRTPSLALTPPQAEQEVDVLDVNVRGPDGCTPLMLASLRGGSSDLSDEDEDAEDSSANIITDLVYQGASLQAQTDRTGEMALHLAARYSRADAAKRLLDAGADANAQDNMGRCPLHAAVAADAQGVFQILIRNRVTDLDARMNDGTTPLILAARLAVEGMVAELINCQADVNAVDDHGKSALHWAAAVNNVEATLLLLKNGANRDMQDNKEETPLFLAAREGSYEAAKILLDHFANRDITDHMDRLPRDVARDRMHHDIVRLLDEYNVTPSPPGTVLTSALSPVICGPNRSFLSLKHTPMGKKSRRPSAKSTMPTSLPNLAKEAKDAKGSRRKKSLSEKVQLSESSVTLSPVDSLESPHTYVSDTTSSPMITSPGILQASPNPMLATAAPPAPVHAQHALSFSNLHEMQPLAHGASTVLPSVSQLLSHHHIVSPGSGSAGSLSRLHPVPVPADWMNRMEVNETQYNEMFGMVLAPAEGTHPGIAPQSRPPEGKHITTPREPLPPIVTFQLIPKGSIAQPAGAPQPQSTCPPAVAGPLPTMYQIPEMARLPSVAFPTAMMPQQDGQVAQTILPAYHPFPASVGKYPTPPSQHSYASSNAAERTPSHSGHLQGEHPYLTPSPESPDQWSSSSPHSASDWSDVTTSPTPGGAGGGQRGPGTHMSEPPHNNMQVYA
UniProt Q8N4L2: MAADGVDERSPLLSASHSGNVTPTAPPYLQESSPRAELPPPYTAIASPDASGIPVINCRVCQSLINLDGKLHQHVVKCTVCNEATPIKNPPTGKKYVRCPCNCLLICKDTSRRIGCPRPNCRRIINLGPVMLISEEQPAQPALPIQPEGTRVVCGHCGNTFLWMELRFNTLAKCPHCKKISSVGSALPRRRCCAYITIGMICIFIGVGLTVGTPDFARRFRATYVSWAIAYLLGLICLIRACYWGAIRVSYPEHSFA
UniProt Q86T03: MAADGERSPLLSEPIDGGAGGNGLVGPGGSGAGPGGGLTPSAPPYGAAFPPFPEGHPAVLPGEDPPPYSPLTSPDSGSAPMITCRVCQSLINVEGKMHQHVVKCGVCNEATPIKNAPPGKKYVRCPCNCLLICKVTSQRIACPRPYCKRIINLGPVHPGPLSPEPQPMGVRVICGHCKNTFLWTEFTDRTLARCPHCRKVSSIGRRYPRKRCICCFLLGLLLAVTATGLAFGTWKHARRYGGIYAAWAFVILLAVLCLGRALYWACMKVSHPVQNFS

Experiment [1] deals with Human canonical CRB2 (Crumbs homolog 2) (human) (UniProt Q5IJ48). Nature of the experiment: affinity purification with mass spectrometry; CRB2-FLAG (GFP-FLAG as control) from HEK293T lysate on FLAG beads, washed with 0.01% SDS in TBS, incubated with lysis buffer without porcine retina lysate, FLAG peptide elution, LC-MS/MS, N = 6; interactors derive from HEK293T cells.
The target is the same in experiment [2]. Briefly: affinity purification with mass spectrometry; CRB2-FLAG (GFP-FLAG as control) held on FLAG beads, washed and purified with 0.01% SDS, incubated with 4 mg porcine neural retina lysate 90 min at 4°C, FLAG peptide elution, LC-MS/MS, N = 6; only the target purified.

In the case of “NOTCH2 (from UniProt Q04721 26-2471) (receptor)”, in experiment [1], the binding entry is given as “binds”. Take “TMEM55A (PIP4P2) (from UniProt Q8N4L2 1-257) (enzyme)”: the binding result in experiment [1] and in experiment [2] was “binds” in each case. As for “TMEM55B (PIP4P1) (from UniProt Q86T03 1-277) (enzyme)”, the binding result in experiment [1] and in experiment [2] was “binds” in each case.

Values taken from paper PMC10992996.
